# Source: PMC7819943, “Rice protein-binding microarrays: a tool to detect cis-acting elements near promoter regions in rice”
# Protein sequences, listed by entry. Tags and fused reporters are not part of them.
# UniProt Q0JBA9, entry or part of it: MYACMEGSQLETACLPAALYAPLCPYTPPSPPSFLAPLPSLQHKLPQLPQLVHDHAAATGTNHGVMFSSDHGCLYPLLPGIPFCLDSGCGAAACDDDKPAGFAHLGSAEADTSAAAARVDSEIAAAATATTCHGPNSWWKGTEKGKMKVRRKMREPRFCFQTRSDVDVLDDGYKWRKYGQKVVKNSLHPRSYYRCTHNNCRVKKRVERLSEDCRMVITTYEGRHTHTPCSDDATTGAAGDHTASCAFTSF
# The list shows a part of the results.
# Molecular target: OsWRKY34 (Oryza sativa, UniProt Q0JBA9 1-250)
# Experiment: protein-binding microarray (RPBM); PBS, 2% BSA, 51.3 ng/ul salmon testes DNA, 50 uM zinc acetate, 200 nM TF, 25 C, 1 h; high values mean tight binding
# Conditions: protein: recombinant; tags: N-terminal polyhistidine and DsRed monomer fusion (pET32a); label: CyDye5-dUTP incorporated in the synthesized complementary strand; 3' TTTTT single-stranded linker to array surface; dsDNA, one strand shown
# Procedure, shortened: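 Binding signal is defined as the fluorescence intensity of each feature in arbitrary units, read on an Axon 4000B scanner. Transcription factors with N-terminal polyhistidine and DsRed fusions came from E. coli BL21-CodonPlus and were purified on Ni–NTA. They were incubated at 200 nM for 1 h at 25 °C on a custom Agilent array that had been made double-stranded with Cy5-dUTP, with 50 µM zinc acetate present, and the array was washed.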
row,Sequence,binding signal
1,GTCCAATGTTTGACGTTTATCCATCTTTCTTTTTTGGGACCGGAGTCACCTAGTGCAG,8120 fluorescence intensity (a.u.)
2,TCTCTCTGGTCACAAGTACTTGTCACTTTGAACATGCCTTCGGAGTCACCTAGTGCAG,13500 fluorescence intensity (a.u.)
3,CTCTATTCTGCTATGCCTCTATCAATTTACTTTGCAATTTCGGAGTCACCTAGTGCAG,8410 fluorescence intensity (a.u.)
4,CCCTTTGCTCCGCTCACACTGCACAGCGCCACCACACTGCCGGAGTCACCTAGTGCAG,10300 fluorescence intensity (a.u.)
5,CGCGAGCCTCACCCGGTCGCAACCCCGACCCGACCCGCAACGGAGTCACCTAGTGCAG,8520 fluorescence intensity (a.u.)
6,AAGGTTTAATTTGGTCTTTCACGTTTTATTTTGTCCATATCGGAGTCACCTAGTGCAG,8370 fluorescence intensity (a.u.)
7,AGTATCAGGTTCTTTTATTTATTTATATATATATATATATCGGAGTCACCTAGTGCAG,8460 fluorescence intensity (a.u.)
8,GCTCACTTCTACTACTACTTAGCACTTCACTTTGTCACCGCGGAGTCACCTAGTGCAG,9850 fluorescence intensity (a.u.)
9,CAAGTCAATTTTTTCCTTTCGTCGCCACGGTCGCTGAAAACGGAGTCACCTAGTGCAG,9850 fluorescence intensity (a.u.)
10,GATGTCCGCGCTCCATGTCCCACACTGTTCTACTTTCAGGCGGAGTCACCTAGTGCAG,10400 fluorescence intensity (a.u.)
11,GATGGCGACGACAGGCTGCGGGCGGAGCAGAGGGGCGGGCCGGAGTCACCTAGTGCAG,8640 fluorescence intensity (a.u.)
12,CTCTTATAACCACTTCTTTTTAAATCATTTGTTTATATGTCGGAGTCACCTAGTGCAG,10200 fluorescence intensity (a.u.)
13,GTTTTGACCCGGTTTTGGTCTACGTGGCGCTGAGTCAGCGCGGAGTCACCTAGTGCAG,8660 fluorescence intensity (a.u.)
14,GATAGATGATTTACCAAGGCTCTTGTTCATATTGTTCAGTCGGAGTCACCTAGTGCAG,8660 fluorescence intensity (a.u.)
15,TGGGTCAGTCTTCTATCAAGATTTATTTCGTCTATCTTACCGGAGTCACCTAGTGCAG,8960 fluorescence intensity (a.u.)
16,GTTTTTCCAGCGCCCAAATCTCTCGGCGGGGACCTCCATGCGGAGTCACCTAGTGCAG,8310 fluorescence intensity (a.u.)
17,ACGCGCGCATCTTCTACGACTTCCCGCGCCGCCGCTTCGCCGGAGTCACCTAGTGCAG,10500 fluorescence intensity (a.u.)
18,CCACACAACGACGTCGCCACTCGCACCGTCCAACCGCGTCCGGAGTCACCTAGTGCAG,12400 fluorescence intensity (a.u.)
19,ACCAATATGTTTCCATCTATATAGTTATGTTTCCGGTTTTCGGAGTCACCTAGTGCAG,15500 fluorescence intensity (a.u.)
20,GGCAGAGAGGGTGGATGAGGCGGTGTGGGCGTCGCCGACGCGGAGTCACCTAGTGCAG,8090 fluorescence intensity (a.u.)
21,GCCGCATGGTGACCGTTCTTCTCTCCTACAGGTGGTTCAACGGAGTCACCTAGTGCAG,8070 fluorescence intensity (a.u.)
22,ACCTCACCGCCATTACTAGCAAAGCCCGCGACAAAACGACCGGAGTCACCTAGTGCAG,8020 fluorescence intensity (a.u.)
23,GTTTCTTTCCTACGTACTTCTCGCATTCCTAATTTTAGCCCGGAGTCACCTAGTGCAG,15700 fluorescence intensity (a.u.)
24,AATCTGGTCGAATGTTTTTACTGTTTTAATTTTGAATTCCCGGAGTCACCTAGTGCAG,9950 fluorescence intensity (a.u.)
25,TTCAGTGCCCTTTAATTAGTTCACACGCTCACGTCTCAAACGGAGTCACCTAGTGCAG,10600 fluorescence intensity (a.u.)
26,GTTTCTCTGGCCATTTGATTCACCTACTCCTGATTCCAGTCGGAGTCACCTAGTGCAG,9080 fluorescence intensity (a.u.)
27,ATGTCATGTGCTAACAGTGTGCTAGTTCGTTCGTTTCTTTCGGAGTCACCTAGTGCAG,9940 fluorescence intensity (a.u.)

row,Sequence,binding signal
1,GATTCAGGCCATTTTCAGCGCCTCTAGATCCTCTATGGTACGGAGTCACCTAGTGCAG,8840 fluorescence intensity (a.u.)
2,TTACCTAGTTCTACCTCTAGCTATTCAGATAATTTTCCTTCGGAGTCACCTAGTGCAG,9300 fluorescence intensity (a.u.)
3,CCCTATGTTCATATTCCTTTTGACTTTTACTCTATTCAAACGGAGTCACCTAGTGCAG,13000 fluorescence intensity (a.u.)
4,CCACCTCTTTATGGTCAAAGATTCACCGATTTCTATTTTCCGGAGTCACCTAGTGCAG,8140 fluorescence intensity (a.u.)
5,ACCACCAAGCTGACTCCCGGTCCATCACCGCAATACTCTCCGGAGTCACCTAGTGCAG,8050 fluorescence intensity (a.u.)
6,TGGGGTTTAAAGTTTCACTTTCTGGACTGTGTGTTCTTCTCGGAGTCACCTAGTGCAG,13000 fluorescence intensity (a.u.)
7,GCTAGCTCGCGCCGCCGCCGCCGCCGTCGCCGCCGCCATGCGGAGTCACCTAGTGCAG,8360 fluorescence intensity (a.u.)
8,TCACTACTATCTACTACCTAGCTAGTCGCAGTTTAATTTACGGAGTCACCTAGTGCAG,8970 fluorescence intensity (a.u.)
9,TCTATCATCCAATTCATACGTTTTATCTGTGGCTAATCGACGGAGTCACCTAGTGCAG,10500 fluorescence intensity (a.u.)
10,GTCATTTATTTTTACCAACGTTTGACTATTCGTCTTATTTCGGAGTCACCTAGTGCAG,9430 fluorescence intensity (a.u.)
11,AGTCATATGTTTGCTCTCTCTTAATATCAATATAATACTACGGAGTCACCTAGTGCAG,9670 fluorescence intensity (a.u.)
12,ACATGGAAATTGAGCCTAATGGCTATCGTATACACTTGCACGGAGTCACCTAGTGCAG,8750 fluorescence intensity (a.u.)
13,ACGGCCAATCTCTGCCCCTTGCTACCTCCCGCGGCGCCGCCGGAGTCACCTAGTGCAG,8680 fluorescence intensity (a.u.)
14,AGCTAGGTGATATTATATTGTTTTGTTGCCTACATAAATCCGGAGTCACCTAGTGCAG,8520 fluorescence intensity (a.u.)
15,TTTTTTTTCTCCTACTTTCGGTACGTCTTTTTCCCAACCACGGAGTCACCTAGTGCAG,8420 fluorescence intensity (a.u.)
16,CTAGGTGGATAAGGAGTGGTGGGTGGTGATTTTTTAATGGCGGAGTCACCTAGTGCAG,15000 fluorescence intensity (a.u.)
17,GGGTTCTTATATGGTTTTTCTTTAAATATTGCTTCTTTTTCGGAGTCACCTAGTGCAG,8940 fluorescence intensity (a.u.)
18,ACATGCTGGCATTTTGTAAGGTACTGTTTTTATGCTCTTGCGGAGTCACCTAGTGCAG,8160 fluorescence intensity (a.u.)
19,ACTCGGCATATGATTCATACCCTTTTTTTTTCTATTTCTACGGAGTCACCTAGTGCAG,9370 fluorescence intensity (a.u.)
20,GTTCCTATTTCTTCAGTAACTATGTTCCTTTTATCTAAGTCGGAGTCACCTAGTGCAG,11300 fluorescence intensity (a.u.)
21,GCTGCCTAGCTACAAAGTAGGAAACATGGTTGGTTTTGTCCGGAGTCACCTAGTGCAG,8320 fluorescence intensity (a.u.)
22,CCTTGCGTCTCTTTGTTTCATTGCGTGCTGTTCATCTTCTCGGAGTCACCTAGTGCAG,11500 fluorescence intensity (a.u.)
23,TCTCCCCGTCACGGGCCCGGCCACCACCGGCCGCTTCTCCCGGAGTCACCTAGTGCAG,8300 fluorescence intensity (a.u.)
24,GGGACTGAGCTACTAAGTGATCGTGGTTTTTTTTTCACTCCGGAGTCACCTAGTGCAG,11200 fluorescence intensity (a.u.)
25,GCGCCGCGCCACCGCCGCTCGTCTCCCATGTCTGTGTATACGGAGTCACCTAGTGCAG,10000 fluorescence intensity (a.u.)
26,ATTATCCGACCATATCCACTCTGTTTTTATTCCTAATCATCGGAGTCACCTAGTGCAG,9880 fluorescence intensity (a.u.)
27,GCCCATTTACCCACAACATTCTATTGAATGCATATTTCTCCGGAGTCACCTAGTGCAG,9470 fluorescence intensity (a.u.)

# Laid out differently: entries from further up
row | Sequence | binding signal
15 | TGGGTCAGTCTTCTATCAAGATTTATTTCGTCTATCTTACCGGAGTCACCTAGTGCAG | 8960 fluorescence intensity (a.u.)
16 | GTTTTTCCAGCGCCCAAATCTCTCGGCGGGGACCTCCATGCGGAGTCACCTAGTGCAG | 8310 fluorescence intensity (a.u.)
17 | ACGCGCGCATCTTCTACGACTTCCCGCGCCGCCGCTTCGCCGGAGTCACCTAGTGCAG | 10500 fluorescence intensity (a.u.)
18 | CCACACAACGACGTCGCCACTCGCACCGTCCAACCGCGTCCGGAGTCACCTAGTGCAG | 12400 fluorescence intensity (a.u.)
